Experimental data taken from article PMC9449696.
These are yes or no findings as the source states them, for the method shown. In cells and extracts the contact can be indirect. Some binding calls cover weakened binding; strength is not graded here. For some of these results: Sequences can lack the tags named with a protein. Blank lines part the entries; values can stand above or below the binder they belong to.

How the values were obtained:
[1] = molecular target: T1, spastin, endogenous (rat (endogenous in brain)) (UniProt B2RYN7); test: co-IP; rat brain lysates; immunoprecipitation with anti-spastin; blots with anti-spastin and anti-PDIA6
T1 sequence: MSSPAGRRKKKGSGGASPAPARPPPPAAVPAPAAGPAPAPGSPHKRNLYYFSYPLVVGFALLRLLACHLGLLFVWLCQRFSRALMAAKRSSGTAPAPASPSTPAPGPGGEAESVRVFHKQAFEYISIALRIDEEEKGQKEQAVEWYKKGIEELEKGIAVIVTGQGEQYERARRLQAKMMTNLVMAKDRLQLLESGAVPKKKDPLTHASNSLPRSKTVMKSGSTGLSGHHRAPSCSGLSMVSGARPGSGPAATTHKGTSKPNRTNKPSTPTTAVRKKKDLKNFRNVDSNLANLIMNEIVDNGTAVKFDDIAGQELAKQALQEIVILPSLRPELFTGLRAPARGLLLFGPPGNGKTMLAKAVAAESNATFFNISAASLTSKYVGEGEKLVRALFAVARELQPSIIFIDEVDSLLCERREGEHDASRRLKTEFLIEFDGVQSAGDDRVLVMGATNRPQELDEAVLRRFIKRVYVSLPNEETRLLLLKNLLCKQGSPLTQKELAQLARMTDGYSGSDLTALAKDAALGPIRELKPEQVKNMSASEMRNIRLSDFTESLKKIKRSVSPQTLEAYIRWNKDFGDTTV

GST-Spastin = molecular target: T2, GST-Spastin (UniProt B2RYN7); test: pull-down; GST-Spastin or GST-PDIA6 on beads combined with rat brain lysates; incubated overnight at 4°C; detection by Western immunoblotting; only the target purified
T2 sequence: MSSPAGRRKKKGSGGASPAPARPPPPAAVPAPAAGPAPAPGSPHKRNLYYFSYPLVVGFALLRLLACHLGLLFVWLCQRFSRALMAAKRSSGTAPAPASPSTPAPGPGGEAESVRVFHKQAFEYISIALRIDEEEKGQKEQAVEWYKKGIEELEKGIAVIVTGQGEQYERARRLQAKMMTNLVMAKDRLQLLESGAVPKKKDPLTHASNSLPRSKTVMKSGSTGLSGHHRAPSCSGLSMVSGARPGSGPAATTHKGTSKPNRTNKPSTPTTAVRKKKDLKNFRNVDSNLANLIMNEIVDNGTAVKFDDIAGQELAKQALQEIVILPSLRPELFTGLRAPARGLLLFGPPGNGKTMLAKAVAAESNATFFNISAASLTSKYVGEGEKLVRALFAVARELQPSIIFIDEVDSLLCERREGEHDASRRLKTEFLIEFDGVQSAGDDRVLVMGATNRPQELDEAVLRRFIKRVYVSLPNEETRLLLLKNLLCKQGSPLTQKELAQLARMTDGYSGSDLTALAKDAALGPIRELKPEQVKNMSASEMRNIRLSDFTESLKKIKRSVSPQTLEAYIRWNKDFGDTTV

GFP-Spastin = molecular target: T3, GFP-Spastin (UniProt B2RYN7); test: co-IP; COS-7 cells co-transfected with Flag-PDIA6 and GFP-Spastin; immunoprecipitation with GFP- and Flag-specific antibodies; Western immunoblotting
T3 sequence: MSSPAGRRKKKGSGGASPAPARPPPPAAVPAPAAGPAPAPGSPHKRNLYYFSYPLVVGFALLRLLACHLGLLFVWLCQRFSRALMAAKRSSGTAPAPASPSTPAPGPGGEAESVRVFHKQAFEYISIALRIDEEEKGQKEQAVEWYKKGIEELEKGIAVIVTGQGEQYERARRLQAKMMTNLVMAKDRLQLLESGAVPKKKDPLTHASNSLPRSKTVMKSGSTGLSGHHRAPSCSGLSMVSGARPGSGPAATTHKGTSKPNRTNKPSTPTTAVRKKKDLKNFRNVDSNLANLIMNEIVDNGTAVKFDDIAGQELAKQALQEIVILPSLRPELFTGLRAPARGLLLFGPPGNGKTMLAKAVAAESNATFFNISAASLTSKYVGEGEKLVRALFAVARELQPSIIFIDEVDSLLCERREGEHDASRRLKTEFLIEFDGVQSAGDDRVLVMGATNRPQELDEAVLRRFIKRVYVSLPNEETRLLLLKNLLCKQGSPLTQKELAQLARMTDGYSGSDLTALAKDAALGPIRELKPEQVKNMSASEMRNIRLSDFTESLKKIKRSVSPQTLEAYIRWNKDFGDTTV

GST-PDIA6 = molecular target: T4, GST-PDIA6 (UniProt Q63081); test: pull-down; GST-Spastin or GST-PDIA6 on beads combined with rat brain lysates; incubated overnight at 4°C; detection by Western immunoblotting; only the target purified
T4 sequence: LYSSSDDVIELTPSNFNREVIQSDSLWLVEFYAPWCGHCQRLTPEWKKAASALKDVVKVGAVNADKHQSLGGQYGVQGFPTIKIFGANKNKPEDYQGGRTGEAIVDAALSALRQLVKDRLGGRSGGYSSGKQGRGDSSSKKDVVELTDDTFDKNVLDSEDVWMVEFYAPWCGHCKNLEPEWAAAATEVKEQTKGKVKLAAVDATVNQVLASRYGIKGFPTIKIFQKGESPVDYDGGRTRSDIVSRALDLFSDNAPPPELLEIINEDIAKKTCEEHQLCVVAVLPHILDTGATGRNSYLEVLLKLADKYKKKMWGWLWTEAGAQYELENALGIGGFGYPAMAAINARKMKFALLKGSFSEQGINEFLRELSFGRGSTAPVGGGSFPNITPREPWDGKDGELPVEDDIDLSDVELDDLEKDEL

binding [1]: binds
binding (GST-Spastin): binds
B1: Protein disulfide isomerase A6 (PDIA6), endogenous (protein, UniProt Q63081 20-440)
chain: LYSSSDDVIELTPSNFNREVIQSDSLWLVEFYAPWCGHCQRLTPEWKKAASALKDVVKVGAVNADKHQSLGGQYGVQGFPTIKIFGANKNKPEDYQGGRTGEAIVDAALSALRQLVKDRLGGRSGGYSSGKQGRGDSSSKKDVVELTDDTFDKNVLDSEDVWMVEFYAPWCGHCKNLEPEWAAAATEVKEQTKGKVKLAAVDATVNQVLASRYGIKGFPTIKIFQKGESPVDYDGGRTRSDIVSRALDLFSDNAPPPELLEIINEDIAKKTCEEHQLCVVAVLPHILDTGATGRNSYLEVLLKLADKYKKKMWGWLWTEAGAQYELENALGIGGFGYPAMAAINARKMKFALLKGSFSEQGINEFLRELSFGRGSTAPVGGGSFPNITPREPWDGKDGELPVEDDIDLSDVELDDLEKDEL

binding (GFP-Spastin): binds
B2: Flag-PDIA6 (protein, UniProt Q63081 20-440)
chain: LYSSSDDVIELTPSNFNREVIQSDSLWLVEFYAPWCGHCQRLTPEWKKAASALKDVVKVGAVNADKHQSLGGQYGVQGFPTIKIFGANKNKPEDYQGGRTGEAIVDAALSALRQLVKDRLGGRSGGYSSGKQGRGDSSSKKDVVELTDDTFDKNVLDSEDVWMVEFYAPWCGHCKNLEPEWAAAATEVKEQTKGKVKLAAVDATVNQVLASRYGIKGFPTIKIFQKGESPVDYDGGRTRSDIVSRALDLFSDNAPPPELLEIINEDIAKKTCEEHQLCVVAVLPHILDTGATGRNSYLEVLLKLADKYKKKMWGWLWTEAGAQYELENALGIGGFGYPAMAAINARKMKFALLKGSFSEQGINEFLRELSFGRGSTAPVGGGSFPNITPREPWDGKDGELPVEDDIDLSDVELDDLEKDEL

binding (GST-PDIA6): binds
B3: spastin, endogenous (protein, UniProt B2RYN7 1-581)
chain: MSSPAGRRKKKGSGGASPAPARPPPPAAVPAPAAGPAPAPGSPHKRNLYYFSYPLVVGFALLRLLACHLGLLFVWLCQRFSRALMAAKRSSGTAPAPASPSTPAPGPGGEAESVRVFHKQAFEYISIALRIDEEEKGQKEQAVEWYKKGIEELEKGIAVIVTGQGEQYERARRLQAKMMTNLVMAKDRLQLLESGAVPKKKDPLTHASNSLPRSKTVMKSGSTGLSGHHRAPSCSGLSMVSGARPGSGPAATTHKGTSKPNRTNKPSTPTTAVRKKKDLKNFRNVDSNLANLIMNEIVDNGTAVKFDDIAGQELAKQALQEIVILPSLRPELFTGLRAPARGLLLFGPPGNGKTMLAKAVAAESNATFFNISAASLTSKYVGEGEKLVRALFAVARELQPSIIFIDEVDSLLCERREGEHDASRRLKTEFLIEFDGVQSAGDDRVLVMGATNRPQELDEAVLRRFIKRVYVSLPNEETRLLLLKNLLCKQGSPLTQKELAQLARMTDGYSGSDLTALAKDAALGPIRELKPEQVKNMSASEMRNIRLSDFTESLKKIKRSVSPQTLEAYIRWNKDFGDTTV
